# From patent US20040192601A1, “Lipid binding molecules and methods of use” (priority 2002, published 2004)
# At least one structure is not confirmed: it was looked up by name or label, or the drawing left a doubt.
# How the values were obtained:
# PI3K = PI3K activity assay: cytosol incubated with PI liposomes, PI3P formed detected by dot blot with GST-SARA FYVE (FIG. 8); format: biochemical; conditions: 100 nM wortmannin, 10 minutes, cytosol plus PI liposomes
# PI3-kinase (PI3K) = conditions: Patki et al. 1997; cited from earlier work
compound,measurement,setting,value
COC[C@H]1OC(=O)c2coc3c2[C@@]1(C)C1=C(C3=O)[C@@H]2CCC(=O)[C@@]2(C)C[C@H]1OC(C)=O [wortmannin],PI3P signal (PI3K activity) in the presence of inhibitor,PI3K,no signal
same,Formation of PI3P,PI3-kinase (PI3K),prevented the formation of PI3P
